Consider two molecules from paper PMC9943853.

Chains of the proteins cited; added tags and fusions are not shown.
UniProt P04150: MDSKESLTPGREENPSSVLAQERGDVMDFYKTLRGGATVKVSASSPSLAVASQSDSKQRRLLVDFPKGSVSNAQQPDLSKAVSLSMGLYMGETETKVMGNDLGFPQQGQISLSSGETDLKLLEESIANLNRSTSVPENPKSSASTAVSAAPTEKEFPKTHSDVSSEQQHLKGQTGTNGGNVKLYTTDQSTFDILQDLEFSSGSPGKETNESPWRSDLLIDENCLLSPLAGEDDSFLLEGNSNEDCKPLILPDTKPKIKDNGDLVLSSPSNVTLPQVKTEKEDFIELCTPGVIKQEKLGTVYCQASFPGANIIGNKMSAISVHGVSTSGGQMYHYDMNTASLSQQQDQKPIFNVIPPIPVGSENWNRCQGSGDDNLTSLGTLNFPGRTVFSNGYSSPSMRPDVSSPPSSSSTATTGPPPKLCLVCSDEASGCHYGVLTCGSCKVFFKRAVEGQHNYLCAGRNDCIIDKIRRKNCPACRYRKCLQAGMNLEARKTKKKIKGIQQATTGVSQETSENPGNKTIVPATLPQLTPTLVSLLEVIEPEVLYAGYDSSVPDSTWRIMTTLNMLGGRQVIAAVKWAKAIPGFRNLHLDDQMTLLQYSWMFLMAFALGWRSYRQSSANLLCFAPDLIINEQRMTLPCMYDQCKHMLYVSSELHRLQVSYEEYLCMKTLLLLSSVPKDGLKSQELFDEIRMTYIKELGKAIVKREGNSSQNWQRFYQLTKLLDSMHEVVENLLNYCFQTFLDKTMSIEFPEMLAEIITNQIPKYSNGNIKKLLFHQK

The target of assay [1] is glucocorticoid receptor (human (endogenous in SH-SY5Y)) (UniProt P04150). In words: co-IP; primary antibodies immobilised on protein G magnetic beads, incubated with SH-SY5Y cell lysates (IP lysis buffer) overnight at 4 °C, washed with PBST, eluted with 20 mM glycine pH 2.0, western blot; cells treated with melatonin (1 μM) for 30 min and then with cortisol (1 μM) for 24 h. (Immunoblotting shows a protein as a band on a membrane.)

For assay [2] the target is unchanged. In words: proximity ligation; Duolink in situ kit on SH-SY5Y cells fixed with 4% paraformaldehyde, rabbit anti-GR and mouse anti-FKBP4 antibodies; cells treated with melatonin (1 μM) for 30 min and then with cortisol (1 μM) for 24 h.

Results are given in words; binding and its absence hold for the method and conditions named. Binding seen in cells or lysates may run through a third protein. Some binding calls cover weakened binding; strength is not graded here.

B1: FKBP5 (protein, UniProt Q13451 1-457)
chain: MTTDEGAKNNEESPTATVAEQGEDITSKKDRGVLKIVKRVGNGEETPMIGDKVYVHYKGKLSNGKKFDSSHDRNEPFVFSLGKGQVIKAWDIGVATMKKGEICHLLCKPEYAYGSAGSLPKIPSNATLFFEIELLDFKGEDLFEDGGIIRRTKRKGEGYSNPNEGATVEIHLEGRCGGRMFDCRDVAFTVGEGEDHDIPIGIDKALEKMQREEQCILYLGPRYGFGEAGKPKFGIEPNAELIYEVTLKSFEKAKESWEMDTKEKLEQAAIVKEKGTVYFKGGKYMQAVIQYGKIVSWLEMEYGLSEKESKASESFLLAAFLNLAMCYLKLREYTKAVECCDKALGLDSANEKGLYRRGEAQLLMNEFESAKGDFEKVLEVNPQNKAARLQISMCQKKAKEHNERDRRIYANMFKKFAEQDAKEEANKAMGKKTSEGVTNEKGTDSQAMEEEKPEGHV
Turning to B1, the binding entry in assay [1] is “binds”.

B2: FKBP prolyl isomerase 4 (protein, UniProt Q02790 1-459)
chain: MTAEEMKATESGAQSAPLPMEGVDISPKQDEGVLKVIKREGTGTEMPMIGDRVFVHYTGWLLDGTKFDSSLDRKDKFSFDLGKGEVIKAWDIAIATMKVGEVCHITCKPEYAYGSAGSPPKIPPNATLVFEVELFEFKGEDLTEEEDGGIIRRIQTRGEGYAKPNEGAIVEVALEGYYKDKLFDQRELRFEIGEGENLDLPYGLERAIQRMEKGEHSIVYLKPSYAFGSVGKEKFQIPPNAELKYELHLKSFEKAKESWEMNSEEKLEQSTIVKERGTVYFKEGKYKQALLQYKKIVSWLEYESSFSNEEAQKAQALRLASHLNLAMCHLKLQAFSAAIESCNKALELDSNNEKGLFRRGEAHLAVNDFELARADFQKVLQLYPNNKAAKTQLAVCQQRIRRQLAREKKLYANMFERLAEEENKAKAEASSGDHPTDTEMKEEQKSNTAGSQSQVETEA
In the case of B2, the binding entry in assay [2] and in assay [1] was “binds” in each case.
